Publication PMC10950282
Results are given in words; binding and its absence hold for the method and conditions named. Binding seen in cells or lysates may run through a third protein.

Protein sequences, listed by entry. Tags and fused reporters are not part of them.
UniProt O43365: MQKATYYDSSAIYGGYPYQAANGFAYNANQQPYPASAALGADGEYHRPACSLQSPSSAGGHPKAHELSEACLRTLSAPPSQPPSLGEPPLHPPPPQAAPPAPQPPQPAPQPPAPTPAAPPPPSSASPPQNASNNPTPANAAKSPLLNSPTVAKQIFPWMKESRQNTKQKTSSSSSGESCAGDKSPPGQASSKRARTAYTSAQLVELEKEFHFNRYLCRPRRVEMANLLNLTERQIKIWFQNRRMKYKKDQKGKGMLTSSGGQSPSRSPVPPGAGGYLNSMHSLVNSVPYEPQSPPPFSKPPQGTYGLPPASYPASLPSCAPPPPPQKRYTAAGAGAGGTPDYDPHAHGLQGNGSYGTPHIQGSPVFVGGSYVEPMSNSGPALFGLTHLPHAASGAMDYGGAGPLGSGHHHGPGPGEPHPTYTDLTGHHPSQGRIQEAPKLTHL

Target: T1, Carnitine palmitoyltransferase 1A (CPT1A) (human (endogenous in HEK-293T)) (UniProt P50416)
T1 sequence: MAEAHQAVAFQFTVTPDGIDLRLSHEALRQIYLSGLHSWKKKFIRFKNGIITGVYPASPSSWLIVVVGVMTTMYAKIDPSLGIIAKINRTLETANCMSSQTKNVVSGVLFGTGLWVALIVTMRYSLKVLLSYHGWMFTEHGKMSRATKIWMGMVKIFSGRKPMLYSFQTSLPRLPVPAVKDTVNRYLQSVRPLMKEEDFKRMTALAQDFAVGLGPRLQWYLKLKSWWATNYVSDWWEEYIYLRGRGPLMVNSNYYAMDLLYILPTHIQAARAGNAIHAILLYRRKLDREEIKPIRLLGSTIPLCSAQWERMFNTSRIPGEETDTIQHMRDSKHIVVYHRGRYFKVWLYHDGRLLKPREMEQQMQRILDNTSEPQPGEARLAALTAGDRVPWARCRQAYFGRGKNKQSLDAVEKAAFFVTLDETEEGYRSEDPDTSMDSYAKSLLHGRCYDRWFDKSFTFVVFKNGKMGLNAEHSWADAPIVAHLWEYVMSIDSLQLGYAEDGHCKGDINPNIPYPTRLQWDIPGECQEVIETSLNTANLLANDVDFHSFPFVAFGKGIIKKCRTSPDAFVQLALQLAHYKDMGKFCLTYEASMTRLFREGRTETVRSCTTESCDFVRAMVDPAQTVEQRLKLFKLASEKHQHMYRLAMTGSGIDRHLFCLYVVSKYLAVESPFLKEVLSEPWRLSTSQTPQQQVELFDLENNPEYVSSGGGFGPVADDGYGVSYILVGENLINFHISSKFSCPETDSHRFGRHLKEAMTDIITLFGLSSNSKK
Test: co-IP; HEK-293T cells lysed in RIPA buffer with protease inhibitors; CPT1A or IgG antibody overnight at 4°C, protein A agarose beads 2 h at 4°C; precipitate analysed by western blot

- binding: no binding
Substance: HOXA3 (from UniProt O43365 1-443)
